Measurements as given in PubChem BioAssay AID720711 (National Center for Advancing Translational Sciences (NCATS), 2013).
Hit rate of the full screen: of about 360,000 compounds, about 290 (0.081%) were called active. The inconclusive results got no clear call from the source; some entries with a clear call stand among them for comparison. The call rests on the fitted dose curve; in most records, active means well fitted activation curve with a large enough effect; inconclusive means small, poorly fitted or top-dose-only effect; inactive means no such curve, though single readings can be large or run the other way. A potency beside an inconclusive call is a rough fit, not a confirmed value.

Sequences of proteins named here, by UniProt entry; tags and fusion partners are left off. A change or cut given only in a name is not applied to a line headed by its entry.
UniProt Q8WZA2: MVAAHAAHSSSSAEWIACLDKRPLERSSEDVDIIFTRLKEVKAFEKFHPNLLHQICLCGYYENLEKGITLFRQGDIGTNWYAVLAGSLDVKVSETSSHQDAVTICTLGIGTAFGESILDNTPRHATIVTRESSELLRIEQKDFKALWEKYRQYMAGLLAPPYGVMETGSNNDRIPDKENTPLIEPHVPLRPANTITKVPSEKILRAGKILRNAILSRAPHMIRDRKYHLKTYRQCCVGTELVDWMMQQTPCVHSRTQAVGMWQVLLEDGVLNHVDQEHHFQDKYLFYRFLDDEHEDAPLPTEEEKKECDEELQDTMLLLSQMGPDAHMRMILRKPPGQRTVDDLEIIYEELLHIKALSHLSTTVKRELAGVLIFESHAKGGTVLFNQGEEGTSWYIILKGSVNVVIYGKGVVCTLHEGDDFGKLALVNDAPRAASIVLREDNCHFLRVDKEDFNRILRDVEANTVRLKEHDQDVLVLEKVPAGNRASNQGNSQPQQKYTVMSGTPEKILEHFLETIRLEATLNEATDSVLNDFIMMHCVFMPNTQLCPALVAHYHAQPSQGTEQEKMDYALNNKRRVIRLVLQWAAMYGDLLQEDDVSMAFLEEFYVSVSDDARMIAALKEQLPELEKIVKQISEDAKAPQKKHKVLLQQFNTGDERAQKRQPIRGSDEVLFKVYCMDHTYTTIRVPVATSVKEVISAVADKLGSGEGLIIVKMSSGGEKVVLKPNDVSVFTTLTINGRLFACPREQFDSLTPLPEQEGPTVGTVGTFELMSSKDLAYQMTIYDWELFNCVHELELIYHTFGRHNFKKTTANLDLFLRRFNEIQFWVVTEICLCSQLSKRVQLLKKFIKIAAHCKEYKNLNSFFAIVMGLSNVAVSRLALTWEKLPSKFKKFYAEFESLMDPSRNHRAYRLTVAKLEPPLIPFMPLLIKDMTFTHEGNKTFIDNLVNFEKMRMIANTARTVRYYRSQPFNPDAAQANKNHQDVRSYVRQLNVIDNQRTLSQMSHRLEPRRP

Target: Rap guanine nucleotide exchange factor 4 (Homo sapiens) (UniProt Q8WZA2)
Assay: qHTS for Agonist of cAMP-regulated guanine nucleotide exchange factor 4 (EPAC2): primary screen; further: nearly all actives have a fitted effect of over 50% in size
Details: biochemical qHTS; Potency: EPAC2 activation unless noted; activation: at 154 µM (top of the series), 100% = 6.5 mM cAMP response unless noted
Summary of the method: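 qHTS, titration series. 100 nM EPAC2 / 250 nM Rap1B-BODIPY-GDP / 50 uM GDP; RT; ex 480/em 540 nm, 5-min reads to 30 min. Norm. to 6.5 mM cAMP = activation.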
Potency means the concentration at half of the fitted maximal effect.

For `c1ccc(-n2nnnc2-n2ccnc2)cc1`, which Potency is on record?
Its Potency is active: 10 µM.

Which Potency does the source give for `CCOC(=O)[C@H]1[C@H]2COc3cc(OC)ccc3[C@@H]2N2C(=O)c3cc(OC)ccc3NC(=O)[C@@]12C` here?
Its Potency is inconclusive: 31.6 µM [activator, single point].

How did the Potency turn out when `Cc1ccc(-c2csc3ncnc(Nc4ccc(C(=O)O)cc4)c23)cc1` was run?
Its Potency is inconclusive: 79.4 µM [activator, partial curve].

For `CN(CC(CC(=O)Nc1nncs1)c1ccccc1)S(=O)(=O)c1ccccc1` (configuration not stated), which Potency is on record?
Its Potency is inconclusive: 50.1 µM [activator, single point].

For `CCOc1ccc(-n2cnnn2)cc1S(=O)(=O)NC1CC1`, which Potency is on record?
The Potency was “inactive”.

With `C=CCNC(=O)c1oc2ccc(S(=O)(=O)N(CC)CC)cc2c1C` as the compound, how does the Potency read?
Its Potency is inconclusive: 5.01 µM [activator, partial curve, poor fit].

With `O=C1S/C(=C\c2ccc(N3CCOCC3)o2)C(=O)N1Cc1ccc(F)cc1` as the compound, how does the Potency read?
Its Potency is active: 112 µM.

For `CCn1c(C(=O)N2CCc3ccccc3C2)cc2sccc21`, which Potency is on record?
The Potency was inconclusive: 25.1 µM [activator, single point].

Which Potency does the source give for `Cc1cc(S(=O)(=O)N2CCN(c3ccccn3)CC2)c(C)cc1Cl` here?
Its Potency is inconclusive: 89.1 µM [activator, partial curve].

With `Cc1ccc(CN2CC(C(=O)Nc3ccc(S(=O)(=O)Nc4cc(C)nc(C)n4)cc3)CC2=O)cc1` (configuration not stated) as the compound, how does the activation read?
Its activation is inconclusive: 152% [activator] [at 15.6 µM, 100% = 6.5 mM cAMP response].

`CC(C)CN(CC(C)C)C(=O)CN1C(=O)NC2(CCc3ccccc3C2)C1=O` (configuration not stated) was tested. Which Potency did it give?
Its Potency is inconclusive: 126 µM [activator, single point].

For `COC(=O)c1cc(OC)c(OC)cc1NC(=O)CSc1nnnn1Cc1ccccc1`, which Potency is on record?
Its Potency is inconclusive: 112 µM [activator, partial curve].

With `COc1cccc(CN2CC(O)=C(c3nc(-c4ccc(Cl)cc4)cs3)C2=N)c1` as the compound, how does the Potency read?
The Potency was active: 6.31 µM.

Which activation does the source give for `COC(=O)C1=C(C)Nc2c(c(=O)n(C)c(=O)n2C)C1c1cccs1` (configuration not stated) here?
Its activation is inconclusive: 47.5% [activator] [at 15.6 µM, 100% = 6.5 mM cAMP response].

With `CN1CCN(c2nc(-c3ccccc3)nc(-c3ccccc3)c2C#N)CC1` as the compound, how does the Potency read?
The Potency was inconclusive: 100 µM [activator, partial curve].

How did the Potency turn out when `COc1ccc(OC)c(/C=C/c2nc3ccccc3[nH]c2=O)c1` was run?
The Potency was inconclusive: 22.4 µM [activator, full curve].

`O=C(NC(Cc1ccccc1)C(=O)OCC(=O)N1CCc2ccccc21)c1ccco1` (configuration not stated) was tested. Which Potency did it give?
Its Potency is inconclusive: 126 µM [activator, single point].

With `CCOC(=O)COc1ccc(Br)cc1/C=C\c1[nH]c(=O)[nH]c(=O)c1[N+](=O)[O-]` as the compound, how does the Potency read?
The Potency was “inactive”.

`CN1CCN(CC(O)Cn2c3ccccc3c3ccccc32)CC1` (configuration not stated) was tested. Which Potency did it give?
The Potency was inconclusive: 126 µM [activator, single point].

How did the activation turn out when `CC(=O)C1=C(O)C(=O)N(Cc2cccnc2)C1c1ccccc1Cl` (configuration not stated) was run?
The activation was inconclusive: 254% [activator] [at 15.6 µM, 100% = 6.5 mM cAMP response].

`Cc1ccc(S(=O)(=O)Nc2cc(C(=O)NCCN3CCCC3)ccc2N2CCCCC2)cc1` was tested. Which activation did it give?
The activation was inconclusive: 36.8% [activator] [at 15.6 µM, 100% = 6.5 mM cAMP response].

How did the Potency turn out when `CC(C)C[C@H]1CN([C@@H](Cc2ccc(O)cc2)CN2CCC[C@H]2CN2C(=O)C(=O)NC[C@@H]2Cc2ccccc2)C(=O)C(=O)N1CC1CCCCCC1` was run?
The Potency was “inactive”.

How did the Potency turn out when `CC(C)c1ccc(OCC(O)CNC(C)c2ccccc2)cc1` (configuration not stated) was run?
Its Potency is inconclusive: 126 µM [activator, single point].

With `CCOC(=O)[C@]12CCCC=C1N(Cc1ccc3c(c1)OCO3)C(=O)[C@H](CC(=O)NCc1cccc(C(F)(F)F)c1)C2` as the compound, how does the Potency read?
The Potency was “inactive”.

How did the Potency turn out when `CSc1nnc(NC(=O)c2nc(S(=O)(=O)Cc3ccccc3)ncc2Cl)s1` was run?
Its Potency is inconclusive: 112 µM [activator, single point].

For `Cc1ccccc1C(=O)Nc1ccc2c(c1)OCO2`, which activation is on record?
The activation was inconclusive: 132% [activator] [at 15.6 µM, 100% = 6.5 mM cAMP response].

`O=c1c2ccccc2sn1-c1ccccc1` was tested. Which Potency did it give?
The Potency was “inactive”.

Which Potency does the source give for `O=C(NCC(c1cccnc1)N1CCN(c2ccc(F)cc2)CC1)c1ccccc1` (configuration not stated) here?
The Potency was inconclusive: 126 µM [activator, single point].

How did the Potency turn out when `Cc1cc2cc(C=C(C#N)C#N)c(Cl)nc2cc1C` was run?
Its Potency is “inactive”.

For `CCn1cc(/C=C/C(=O)c2ccc(O)cc2)c(C)n1`, which Potency is on record?
Its Potency is “inactive”.

How did the Potency turn out when `CC1=CC(=C(C#N)c2nc3ccccc3s2)C=C(C)N1c1ccc(F)cc1F` was run?
The Potency was inconclusive: 31.6 µM [activator, partial curve].

Which Potency does the source give for `Cc1cc2nc3c(=O)n(C4CCCCC4)c(=O)[nH]c3nc2cc1N` here?
The Potency was inconclusive: 70.8 µM [activator, partial curve].

`CCc1ccc(NC(=O)NCc2ccc3c(c2)OCO3)cc1` was tested. Which Potency did it give?
Its Potency is “inactive”.

With `CCCn1c(O)c(N=Nc2ccc3ccccc3n2)c2ccccc21` as the compound, how does the Potency read?
Its Potency is active: 89.1 µM.

For `Cc1cccc(NC(=O)CSCC(=O)Nc2ccccc2N2CCCC2)c1`, which Potency is on record?
The Potency was inconclusive: 100 µM [activator, partial curve].

Which activation does the source give for `O=C1c2ccccc2C(=O)N1CCOCCN1C(=O)c2ccccc2C1=O` here?
The activation was inconclusive: 51.3% [activator] [at 15.6 µM, 100% = 6.5 mM cAMP response].

How did the Potency turn out when `CN(C)c1ccc(/C=C(/C(=O)c2ccc(Cl)cc2Cl)n2cncn2)cc1` was run?
The Potency was active: 44.7 µM.

With `N#Cc1cc2c(nc1SCc1cccnc1)CCCCC2` as the compound, how does the Potency read?
The Potency was inconclusive: 112 µM [activator, single point].

Which Potency does the source give for `C#CCOCCOCCOCCNc1nc(N2CCN(C(=O)CCCCCCCCCCNC(=O)Cn3cc(CCCCCN)nn3)CC2)nc(N2CCN(C(=O)CCCCCCCCCCNC(=O)Cn3cc(C[C@@H](C)O)nn3)CC2)n1` here?
The Potency was inconclusive: 22.4 µM [activator, single point].

Which Potency does the source give for `CC(C)(C)c1ccc(C(=O)C2CCCN(C(=O)C3CCOCC3)C2)cc1` (configuration not stated) here?
Its Potency is inconclusive: 63.1 µM [activator, partial curve].

How did the Potency turn out when `CC(O)(c1cccc(F)c1)c1nc(-c2cccc(C(=O)O)c2)cs1` (configuration not stated) was run?
The Potency was “inactive”.

For `CC(C)N(CCC(=O)c1ccc2ccccc2c1)Cc1ccccc1`, which Potency is on record?
Its Potency is “inactive”.

Which Potency does the source give for `S=C(NC1CCCCC1)N1CCn2cccc2C1c1ccncc1` (configuration not stated) here?
The Potency was inconclusive: 126 µM [activator, single point].

`Cc1cccc(C(=O)N[C@H](C(=O)Nc2nc3ccc(S(C)(=O)=O)cc3s2)C(C)C)c1` was tested. Which Potency did it give?
The Potency was “inactive”.

How did the Potency turn out when `Fc1ccc(Nc2cncc(-c3ccsc3)c2)cc1Cl` was run?
The Potency was inconclusive: 50.1 µM [activator, partial curve].

`CC(=O)n1c(C=Nc2ccc(Cl)cc2)c(O)c2ccccc21` was tested. Which Potency did it give?
Its Potency is inconclusive: 126 µM [activator, single point].

With `Cc1cccc(N2C(=O)c3cccc4c(N)ccc(c34)C2=O)c1` as the compound, how does the Potency read?
Its Potency is active: 100 µM.

`CCOc1ccc(N2C(=O)CN=C2Nc2ccccc2F)cc1` was tested. Which Potency did it give?
The Potency was inconclusive: 89.1 µM [activator, single point].

Which Potency does the source give for `COC(=O)C1=CN(c2ccc(N3CCOCC3)cc2)C(N)=C(C#N)C1c1cccc(F)c1` (configuration not stated) here?
Its Potency is “inactive”.

`CN(c1ccccc1C(=O)Nc1cccc(Br)c1)S(=O)(=O)c1ccccc1` was tested. Which Potency did it give?
The Potency was inconclusive: 63.1 µM [activator, partial curve].

`CCCS(=O)(=O)NCCc1cc2c(C)ccc(C)c2[nH]c1=O` was tested. Which Potency did it give?
Its Potency is inconclusive: 31.6 µM [activator, single point].

`Cc1ccc2nc(/C(C#N)=C\c3ccc([N+](=O)[O-])o3)[nH]c2c1` was tested. Which Potency did it give?
The Potency was “inactive”.

For `O=C(COC(=O)c1ccc2c(c1)OCO2)NC1CCS(=O)(=O)C1` (configuration not stated), which Potency is on record?
Its Potency is inconclusive: 28.2 µM [activator, single point].

With `C=CCn1c(SCC(=O)Nc2ncc(Cc3cc(Cl)ccc3Cl)s2)nnc1-c1ccncc1` as the compound, how does the Potency read?
Its Potency is inconclusive: 112 µM [activator, single point].

With `COC(=O)[C@@]12CCCCN1[C@H](c1ccc(-c3ccc(F)cc3)c(OC)c1)[C@H]1C(=O)N(C)C(=O)[C@H]12` as the compound, how does the Potency read?
The Potency was “inactive”.

`Cc1cccc(NC(=O)C(C)Sc2ncnc3sccc23)c1` (configuration not stated) was tested. Which activation did it give?
The activation was inconclusive: 19.4% [activator].

For `CC(/C=C1\SC(=S)N(NC(=O)c2ccc(C)cc2)C1=O)=C\c1ccccc1`, which Potency is on record?
Its Potency is “inactive”.

With `O=C1/C(=C\c2cccs2)N=C(c2cccs2)N1Nc1ccccc1` as the compound, how does the Potency read?
Its Potency is inconclusive: 89.1 µM [activator, partial curve].

How did the Potency turn out when `N#Cc1cc(C(=O)c2ccccc2O)cn(-c2nccs2)c1=O` was run?
The Potency was active: 100 µM.

`OC(c1ccccc1)c1nc(/C=C/c2ccccc2)cs1` (configuration not stated) was tested. Which Potency did it give?
Its Potency is inconclusive: 56.2 µM [activator, partial curve].

`C=CCn1c(SCc2cc(=O)n3ccsc3n2)nc2cc(Cl)ccc2c1=O` was tested. Which Potency did it give?
The Potency was inconclusive: 89.1 µM [activator, partial curve].

How did the Potency turn out when `Cn1cc(C(=O)C(=O)N2CCCCC2)c2ccccc21` was run?
Its Potency is inconclusive: 44.7 µM [activator, single point].

`O=C(Nc1ccc(Oc2ccccc2)cc1)c1csc([C@@H]2C[C@H](O)[C@@H](CO)O2)n1` was tested. Which Potency did it give?
The Potency was “inactive”.

How did the Potency turn out when `CCOc1ccccc1NC(=O)CSc1nnc(-c2ccccc2Cl)n1Cc1ccco1` was run?
The Potency was inconclusive: 126 µM [activator, single point].

With `Cc1ccc2nc(/C(C#N)=C\c3ccc(N4CCOCC4)o3)[nH]c2c1` as the compound, how does the Potency read?
Its Potency is active: 39.8 µM.

`Cc1cc(SCc2cccc([N+](=O)[O-])c2)nc(=O)[nH]1` was tested. Which Potency did it give?
The Potency was “inactive”.

Which Potency does the source give for `O=C(N/N=C/c1ccc(-c2cccc(C(F)(F)F)c2)o1)c1ccccc1Br` here?
Its Potency is inconclusive: 126 µM [activator, single point].
